Among the data in paper PMC3873232 are binding values, retold here.

No constants are given. Whether binding was seen depends on the method and setting. For some assays here: Binding seen in cells or lysates may run through a third protein. For some assays here: Tags and fused reporters may be left off the sequences shown.

Assay [1] addresses T1, Thr1-P form of the Spt5 CTD peptide (S. pombe).
T1 sequence (peptide, biotin on the N-terminus; both Thr residues phosphorylated): GSKTPAWNSGSKTPAWNS
Put plainly: pull-down; biotinylated peptides (50 µg) on streptavidin Dynabeads incubated with 50-200 ng TAP-purified factor in 200 µl (20 mM Hepes pH 7.6, 37.5 mM KOAc, 2.5 mM MgOAc, 5% glycerol, 0.075% Triton X-100), 4°C, 1 h; washes with 250 mM KOAc; immunoblot with a TAP antibody; percent bound by ImageJ; both ….

Assay [2] deals with Prf1-TAP (S. pombe). The experiment in a line: co-IP; single-step TAP purification: whole cell extracts incubated with IgG-sepharose beads to isolate Prf1-TAP; bound material analysed by SDS-PAGE and western blotting. (In western blotting, separated proteins are transferred to a membrane and probed.)

With “PAF complex purified from the tpr1-TAP strain (S. pombe)”, the binding entry in assay [1] is listed as “no binding (tested: 200 ng in 200 µl)”.

B1: Tpr1-13xmyc (protein, UniProt O42668 1-1039)
chain: MEGFTLETHASRIIEVPLLGQEDQSVEIDCSSLPSDATELCEILVNEQAPREFWTKFAHEYYIRGLREQAILILKSGLETLKDSESLCILNANIAAIYLSMAREAMLKKDTDLRDEQLRNVRTYLEAANNIDSKSEINVLLHGIYRILLNPTDKESLENAARCFDFVLQKSGGNILGFLGKARILYAKGNYRSALKLYQRALVSNPQFKPDPRIGIGLCFWNLDMKTDALSAWTRVQQLDPKNTVVDTYIGLYYYDLAFQNVNNDSFVQNYGKALQHIQRAFKTRNNDPVASSILERYVYSKKNYEGCIKLAENVIQNSFSSSLIADGYYWMGRAYHQMGNNEKAMASYQKAKAADDRHLLSSVGIGQIQILQNDLTSAKLTFERIAEQNQSCFEALVVLGCLHASDSKPDLTKARMLLDRAFNLVGSSKLPRVVDSDLYITQARLWEKEDTKKSLGFLTRALDFLESAHMSVGPELLNNIAVLQYHLGLIPEAHGNIIKAKSVLPDANPELSLLLDYNLARCEEELGNTSVASEAYVSILEKHPSFIDARIRKCLLQLSNPNEETFKEIRHIMNADSQNLEVRAFFGWYLSKQKRRPVEDPEVRHCSQTLRHWHDDIYSLVQLGNAYMRQAREFRVHNDREKLKRQKLYIKAIQSYDQAIKFDPKNAHAAQGIAIILAQNRQFSKALLILSKVREAIKDATTLINIGNCLAELKQFSRAIEVFETVYSSTGESDTYGVLSCLGRVWLQRGRESKNVDYLKESVRYATLALEKNPENPSLLFNVAFVQFQLCELIRQKPENSRTVEDLNFAMQQLDASIETFTKLVSVEHPPYSPTSIEQRAKMAKNTTKRQLERAIQAQIEYEKSVAAKLEDARIQREKEKARRLAEEEALLKEKQERERQLQEERQKMQEEVLEWRKSQQKASEDDMSLSDDEEKQSGKKKKKDRKKRKSKSKQESSDSGVSEDDEIPLSDARNKTKKRRVNRRVISEEYTFDQDSDAEGNQEEEVSRTIEEKQDNDITDNQDDNKELNLFSEEDEE
Take B1: the binding result in assay [2] is reported as “no binding”.
